Assay results from patent US4395274A, “Microbicidal agent and its use” (Bayer Aktiengesellschaft, priority 1979, dated 1983).

System: fungus
Experiment: paper production: pulp feeding system, losses of active compound, effluent and discharged air
Details: 0.5% by weight of paper added to the pulp
Protocol: Based on the weight of the paper (90 to 100 g/m^2) 0.5% of A/B=6/1 is homogeneously mixed under a pulp (density 1%, pH value 4.8) having the following composition:
If, however, as is customary, owing to the lack up until now of usable alternatives, 0.5% of sodium pentachlorophenolate (related to the weight of the paper) is added to the pulp, losses of active compound amounting to more than 50% occur (approx. 25% are found in the effluent and approx. 25% in the outgoing air).

For [Na+].[O-]c1c(Cl)c(Cl)c(Cl)c(Cl)c1Cl [sodium pentachlorophenolate], the “active compound found in the effluent” value was “approx. 25%”, the “active compound found in the outgoing air” value was “approx. 25%” and the “losses of active compound” value was “more than 50%”.
